According to patent publication EP2063887B1, “NEW SMALL MOLECULE INHIBITORS OF MDM2 AND THE USES THEREOF” (priority 2006, dated 2008):
For part of its entries the source gives two or more results. They are shown here; other results are not. There may be further records. Results that share an entry differ for a reason that is not stated; they may come from other doses, times, organisms or constructs than stated.

Tested on: HCT116 p53KO
Assay: Cell growth inhibition (WST-8), HCT116 p53KO;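 note: cells in 96-well plates exposed to compound for 4 days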
Format: cell-based
Conditions: read-out: HCT116 p53KO IC50; tested form: HCl

CC(C)(C)C[C@H]1N(S(=O)(=O)C(F)(F)F)[C@@H](C(=O)NCCN2CCOCC2)[C@H](c2ccc(F)c(Cl)c2)[C@@]12C(=O)Nc1cc(Cl)c(F)cc12
IC50: 11.6 µM, 5.45 µM, 8.9 µM
